# Source: PubChem BioAssay AID256 (DTP/NCI, 2004)
# The list does not hold the whole screen: it is rich in T/C values a quarter to a half above the control, in often repeated tests (any T/C) and in doses without a T/C. Other doses and runs of a compound stand elsewhere. T/C: endpoint of the treated group in % of that of the vehicle group. Some doses have a count of surviving animals in place of a T/C: the source holds a T/C of zero for them, seemingly a mark for toxic or unscored doses. Some survivor counts are full or nearly so, which does not show that the dose was tolerated: the source hardly ever lists a survival T/C far under the control, and the zero likely stands for such cases as well. Counts of survivors are from the toxicity check (mostly the fifth day) where no day follows; animals may have died later. Schedules are NCI's codes, read here as Q, the interval in days (D) or hours (H), X, the number of doses. Some entries were tested several times; their values stand side by side, smallest first. Some molecules as drawn cover several salts, stereoisomers or complexes of the source; a dose is that of the sample tested. For survival time, the PubChem record calls one and a half times the control and up active, and a quarter to a half above the control has no call in these data; cut-offs in other NCI protocols can differ. Some T/C values carry the count of animals alive at the toxicity check (mostly the fifth day); where none is given, no animal had died by that day. Additions like (4×) say how often a value occurs here.
# Test system: CD2F1 mice, L1210 leukemia ip, survival T/C
# Test: NCI In Vivo Anticancer Drug Screen. Data for tumor model L1210 Leukemia (intraperitoneal) in CD2F1 (CDF1) mice
# Details: higher T/C = longer survival
# Outline: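 In this screen, transplantable tumors were grown in mice given either the compound or its vehicle. Results were expressed as the treated measurement relative to the control measurement.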
# [1] = T/C endpoint: mean survival time, dose: 200.0 mg/kg/injection, schedule: Q04DX002 (ip), vehicle: saline with Tween-80
# [2] = T/C endpoint: median survival time, dose: 400.0 mg/kg/injection, schedule: Q01DX009 (ip), vehicle: saline with Tween-80
# [3] = T/C endpoint: mean survival time, dose: 400.0 mg/kg/injection, schedule: Q01DX009 (ip), vehicle: saline with Tween-80
# [4] = T/C endpoint: mean survival time, dose: 300.0 mg/kg/injection, schedule: Q01DX001 (ip), vehicle: saline
# [5] = T/C endpoint: mean survival time, dose: 200.0 mg/kg/injection, schedule: Q04DX003 (ip), vehicle: saline with Tween-80
# [6] = T/C endpoint: mean survival time, dose: 400.0 mg/kg/injection, schedule: Q04DX003 (ip), vehicle: saline with Tween-80
smiles,measurement,setting,value
NC(=S)N/N=C/c1ccc(OC(=O)COc2ccccc2)cn1,T/C,"T/C endpoint: mean survival time, dose: 132.0 mg/kg/injection, schedule: Q04DX003 (ip), vehicle: saline with Tween-80",125 % of control
same,T/C,[1],126 % of control
same,T/C,"T/C endpoint: mean survival time, dose: 300.0 mg/kg/injection, schedule: Q04DX003 (ip), vehicle: saline with Tween-80",125 % of control
same,T/C,"T/C endpoint: mean survival time, dose: 450.0 mg/kg/injection, schedule: Q04DX003 (ip), vehicle: saline with Tween-80",141 % of control
same,T/C,"T/C endpoint: median survival time, dose: 25.0 mg/kg/injection, schedule: Q01DX009 (ip), vehicle: saline with Tween-80","131, 144, 156, 172 % of control"
same,T/C,"T/C endpoint: median survival time, dose: 50.0 mg/kg/injection, schedule: Q01DX009 (ip), vehicle: saline with Tween-80","151, 167, 168, 177, 180 % of control"
same,T/C,"T/C endpoint: median survival time, dose: 100.0 mg/kg/injection, schedule: Q01DX009 (ip), vehicle: saline with Tween-80","143 [5 of 6 alive], 169, 173, 183, 184 % of control"
same,T/C,"T/C endpoint: median survival time, dose: 200.0 mg/kg/injection, schedule: Q01DX009 (ip), vehicle: saline with Tween-80","130 [5 of 6 alive], 160, 162, 178, 216 % of control"
same,T/C,[2],"100, 101 [4 of 6 alive], 114, 142 % of control"
same,survivor count,[2],4 of 6
O=c1[nH]c(=O)n(O)c2nc[nH]c12,survivor count,"T/C endpoint: mean survival time, dose: 100.0 mg/kg/injection, schedule: Q01DX009 (ip), vehicle: saline with Tween-80",3 of 6
COC(=O)c1ccccc1C=C(c1ccc([N+](=O)[O-])cc1)c1ccc([N+](=O)[O-])cc1,survivor count,[3],2 of 6
COc1ccc2c(c1)CCCC2=O,survivor count,[3],0 of 6
O=C(Nc1ccc(C2=NCCCN2)cc1)c1ccc(NC(=O)c2ccc(C3=NCCCN3)cc2)cc1,T/C,"T/C endpoint: mean survival time, dose: 4.0 mg/kg/injection, schedule: Q01DX008 (iv), vehicle: water",133 % of control
same,survivor count,"T/C endpoint: mean survival time, dose: 6.0 mg/kg/injection, schedule: Q01DX008 (iv), vehicle: water",4 of 7
same,survivor count,"T/C endpoint: mean survival time, dose: 12.0 mg/kg/injection, schedule: Q01DX008 (iv), vehicle: water",0 of 7
Nc1ccc(N=Nc2cccnc2)cc1,survivor count,"T/C endpoint: mean survival time, dose: 400.0 mg/kg/injection, schedule: Q04DX002 (ip), vehicle: other",1 of 3
COc1c2c(cc3c1C(O)N(C)CC3)OCO2 (centres undefined),survivor count,[4],1 of 6
O=c1[nH]c(Cc2ccccc2)c(N=Nc2ccccc2)c(=O)[nH]1,survivor count,"T/C endpoint: mean survival time, dose: 100.0 mg/kg/injection, schedule: Q01DX001 (ip), vehicle: saline with Tween-80",6 of 6
CC12CCC(=O)C=C1CCCC2=O (centres undefined),survivor count,"T/C endpoint: mean survival time, dose: 200.0 mg/kg/injection, schedule: Q01DX009 (ip), vehicle: saline",2 of 6
CCCCCCCCCCCCCCCC(=O)N1CC[N+](C)(CC2=CC3(Cl)C(Cl)=C(Cl)C2(Cl)C3(Cl)Cl)CC1 (centres undefined),survivor count,[4],0 of 6
Cc1nc2c(nc1C)C(=O)C(N1CCOCC1)=CC2=O,survivor count,"T/C endpoint: mean survival time, dose: 50.0 mg/kg/injection, schedule: Q01DX001 (ip), vehicle: saline",1 of 6
COC1C(N)C(OC2C(Oc3cccc4c(O)c5c(=O)oc6ccc(C)c7c(=O)oc(c34)c5c67)OC(C)C(O)C2(C)O)OC(C)C1O (centres undefined),T/C,"T/C endpoint: median survival time, dose: 1.8 mg/kg/injection, schedule: Q01DX005 (ip), vehicle: other",144 % of control
same,T/C,"T/C endpoint: median survival time, dose: 2.5 mg/kg/injection, schedule: Q01DX005 (ip), vehicle: other",139 % of control
same,survivor count,"T/C endpoint: median survival time, dose: 8.33 mg/kg/injection, schedule: Q01DX005 (ip), vehicle: other",2 of 6
same,survivor count,"T/C endpoint: median survival time, dose: 10.0 mg/kg/injection, schedule: Q01DX005 (ip), vehicle: other",0 of 6
same,survivor count,"T/C endpoint: median survival time, dose: 13.88 mg/kg/injection, schedule: Q01DX005 (ip), vehicle: other",0 of 6
same,survivor count,"T/C endpoint: median survival time, dose: 20.0 mg/kg/injection, schedule: Q01DX005 (ip), vehicle: other",0 of 6
CSCS(=O)C[C@H](CO)NC(=O)/C=C/c1c(C)[nH]c(=O)[nH]c1=O (some centres undefined),T/C,"T/C endpoint: mean survival time, dose: 0.3 mg/kg/injection, schedule: Q01DX009 (ip), vehicle: water",132 % of control
same,survivor count,"T/C endpoint: mean survival time, dose: 0.6 mg/kg/injection, schedule: Q01DX009 (ip), vehicle: water",6 of 6
same,survivor count,"T/C endpoint: mean survival time, dose: 1.0 mg/kg/injection, schedule: Q01DX009 (ip), vehicle: saline",6 of 6
same,survivor count,"T/C endpoint: mean survival time, dose: 1.2 mg/kg/injection, schedule: Q01DX009 (ip), vehicle: water",2 of 6 and 5 of 6
CC(=O)Nc1ncc(CN2CCCCC2)s1,survivor count,"T/C endpoint: mean survival time, dose: 400.0 mg/kg/injection, schedule: Q04DX002 (ip), vehicle: Klucel (hydroxypropylcellulose) (HPC)",0 of 3
CCCCCCC(=C/c1ccccc1)/C=N/NC(=O)c1ccc[n+](C)c1,survivor count,[5],0 of 3
same,survivor count,[6],0 of 3
CC(=O)N1CCc2nc3ccccc3cc21,survivor count,"T/C endpoint: mean survival time, dose: 225.0 mg/kg/injection, schedule: Q01DX009 (ip), vehicle: saline with Tween-80",0 of 6
same,survivor count,"T/C endpoint: mean survival time, dose: 340.0 mg/kg/injection, schedule: Q01DX009 (ip), vehicle: saline with Tween-80",0 of 6
COc1ccc(NC(=O)Oc2ccc(SC)c(C)c2)cc1,survivor count,[1],3 of 3
COc1cccc2c1C(=O)c1c(O)c3c(c(O)c1C2=O)C[C@@](O)(/C(C)=N/NC(=O)c1cccc([N+](=O)[O-])c1)C[C@@H]3OC1CC(N)C(O)C(C)O1 (some centres undefined),T/C,"T/C endpoint: mean survival time, dose: 8.0 mg/kg/injection, schedule: Q01DX009 (ip), vehicle: water",126 % of control
same,survivor count,"T/C endpoint: mean survival time, dose: 32.0 mg/kg/injection, schedule: Q01DX009 (ip), vehicle: water",6 of 6
C#CCN(Cc1ccc2nc(N)[nH]c(=O)c2c1)c1ccc(C(=O)NC(CCC(=O)O)C(=O)O)cc1 (centres undefined),T/C,"T/C endpoint: median survival time, dose: 60.0 mg/kg/injection, schedule: Q01DX009 (ip), vehicle: sodium bicarbonate",130 and 142 % of control
same,T/C,"T/C endpoint: median survival time, dose: 86.4 mg/kg/injection, schedule: Q01DX005 (ip), vehicle: water",146 % of control
same,T/C,"T/C endpoint: median survival time, dose: 100.0 mg/kg/injection, schedule: Q01DX005 (ip), vehicle: alkali diluted with water",133 % of control (2×)
same,T/C,"T/C endpoint: median survival time, dose: 100.0 mg/kg/injection, schedule: Q01DX005 (ip), vehicle: water",128 % of control
same,T/C,"T/C endpoint: median survival time, dose: 125.0 mg/kg/injection, schedule: Q01DX005 (ip), vehicle: alkali diluted with water",134 % of control
same,T/C,"T/C endpoint: median survival time, dose: 144.0 mg/kg/injection, schedule: Q01DX005 (ip), vehicle: water",128 % of control [5 of 6 alive]
same,T/C,"T/C endpoint: median survival time, dose: 150.0 mg/kg/injection, schedule: Q01DX005 (ip), vehicle: alkali diluted with water",134 and 146 % of control
same,T/C,"T/C endpoint: median survival time, dose: 200.0 mg/kg/injection, schedule: Q01DX005 (ip), vehicle: water",135 % of control
same,survivor count,"T/C endpoint: median survival time, dose: 240.0 mg/kg/injection, schedule: Q01DX009 (ip), vehicle: sodium bicarbonate",0 of 6
same,survivor count,"T/C endpoint: median survival time, dose: 400.0 mg/kg/injection, schedule: Q01DX005 (ip), vehicle: water",0 of 6 and 3 of 6
same,survivor count,"T/C endpoint: median survival time, dose: 666.6 mg/kg/injection, schedule: Q01DX005 (ip), vehicle: water",0 of 6
same,survivor count,"T/C endpoint: median survival time, dose: 666.66 mg/kg/injection, schedule: Q01DX005 (ip), vehicle: water",0 of 6
O=C([O][Hg][C](F)(F)F)C(F)(F)F,survivor count,"T/C endpoint: mean survival time, dose: 12.5 mg/kg/injection, schedule: Q04DX003 (ip), vehicle: saline",1 of 3
same,survivor count,"T/C endpoint: mean survival time, dose: 25.0 mg/kg/injection, schedule: Q04DX003 (ip), vehicle: saline",0 of 3
same,survivor count,"T/C endpoint: mean survival time, dose: 100.0 mg/kg/injection, schedule: Q04DX003 (ip), vehicle: saline with Tween-80",0 of 3
same,survivor count,[5],0 of 3
same,survivor count,[6],0 of 3
CCN(CC)C(=O)c1ccc[n+](CC(=O)Nc2ccccc2)c1,survivor count,"T/C endpoint: mean survival time, dose: 200.0 mg/kg/injection, schedule: Q04DX003 (ip), vehicle: saline",3 of 6
same,survivor count,"T/C endpoint: mean survival time, dose: 400.0 mg/kg/injection, schedule: Q04DX003 (ip), vehicle: saline",0 of 6
Cc1ccc(S(=O)(=O)N/N=C/c2ccccc2Cl)cc1,survivor count,"T/C endpoint: mean survival time, dose: 200.0 mg/kg/injection, schedule: Q01DX009 (ip), vehicle: Klucel (hydroxypropylcellulose) (HPC)",3 of 6
same,survivor count,"T/C endpoint: mean survival time, dose: 400.0 mg/kg/injection, schedule: Q01DX009 (ip), vehicle: Klucel (hydroxypropylcellulose) (HPC)",0 of 6
CCOC(=O)COC(CN)C(Cl)(Cl)Cl (centres undefined),survivor count,[6],1 of 6
CN(C)N=Nc1cc(C(N)=O)cc(C(N)=O)c1,T/C,"T/C endpoint: mean survival time, dose: 150.0 mg/kg/injection, schedule: Q01DX009 (ip), vehicle: Klucel (hydroxypropylcellulose) (HPC)",134 % of control
same,survivor count,"T/C endpoint: mean survival time, dose: 300.0 mg/kg/injection, schedule: Q01DX009 (ip), vehicle: Klucel (hydroxypropylcellulose) (HPC)",5 of 6
